Values quoted from earlier work as cited in patent US20090069433A1 (priority 2007, published 2009).
Some results were stated once for a whole list of compounds, not compound by compound. Some compounds share one range, which may span the group rather than tell each member.

details: pure capsaicinoid; background statement

Q: Which “pungency (Scoville scale)” value does the source give for COc1cc(CNC(=O)CCCCC/C=C/C(C)C)ccc1O [Homocapsaicin] here?
A: The value was 8,600,000-9,100,000 Scoville units.

Q: For COc1cc(CNC(=O)CCCCCCCC(C)C)ccc1O [Homodihydrocapsaicin], which “pungency (Scoville scale)” value is on record?
A: Its value is 8,600,000-9,100,000 Scoville units.

Q: Which “pungency (Scoville scale)” value does the source give for COc1cc(CNC(=O)CCCCCC(C)C)ccc1O [Nordihydrocapsaicin] here?
A: The value was 8,600,000-9,100,000 Scoville units.
